From paper PMC7819943, “Rice protein-binding microarrays: a tool to detect cis-acting elements near promoter regions in rice”
This is one part of the list.

By UniProt entry, the sequences of proteins in these tests, tags left out.
UniProt Q0JBA9, entry or part of it: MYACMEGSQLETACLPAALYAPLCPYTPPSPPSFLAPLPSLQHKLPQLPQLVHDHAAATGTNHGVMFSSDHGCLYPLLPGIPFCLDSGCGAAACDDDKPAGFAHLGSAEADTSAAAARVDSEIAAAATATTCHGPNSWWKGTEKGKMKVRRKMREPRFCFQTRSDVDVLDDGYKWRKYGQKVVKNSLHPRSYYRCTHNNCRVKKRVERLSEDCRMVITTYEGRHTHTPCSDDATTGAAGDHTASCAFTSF

molecular target: OsWRKY34 (Oryza sativa, UniProt Q0JBA9 1-250); experiment: protein-binding microarray (RPBM); PBS, 2% BSA, 51.3 ng/ul salmon testes DNA, 50 uM zinc acetate, 200 nM TF, 25 C, 1 h; high values mean tight binding; details: protein: recombinant; tags: N-terminal polyhistidine and DsRed monomer fusion (pET32a); label: CyDye5-dUTP incorporated in the synthesized complementary strand; 3' TTTTT single-stranded linker to array surface; dsDNA, one strand shown
Summary of the method: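 A custom Agilent array was converted to double-stranded form by primer extension with Cy5-dUTP and blocked with 2% BSA. Protein at 200 nM in PBS with 2% BSA, salmon testes DNA and 50 µM zinc acetate was applied for 1 h at 25 °C, followed by washing. The proteins were polyhistidine–DsRed N-terminal fusions of transcription factors, expressed in E. coli BL21-CodonPlus and Ni–NTA-purified. The binding signal is per-feature fluorescence intensity (arbitrary units) from an Axon 4000B scanner.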

| Sequence | binding signal |
| --- | --- |
| TAAATTCCTATATTGTTTCTTTCCTATTTGTATAGTCGCACGGAGTCACCTAGTGCAG | 8500 fluorescence intensity (a.u.) |
| GTATGTTATGGGCTTATTCGTGGGTACGCAAGTCTAGTATCGGAGTCACCTAGTGCAG | 8860 fluorescence intensity (a.u.) |
| CCAAAATTTACTCCTTTTTCACTGCTTTGTTGCCTTGTTACGGAGTCACCTAGTGCAG | 10800 fluorescence intensity (a.u.) |
| TGTCTAATCCTTTTTGCTGCCATTCTGTTGTGAACTGGAACGGAGTCACCTAGTGCAG | 12000 fluorescence intensity (a.u.) |
| AATTGCTACTCAGGTCTACTTGCCTTCCCCACATCCACTCCGGAGTCACCTAGTGCAG | 9320 fluorescence intensity (a.u.) |
| TTTCCTCATTTATTCACTTGCCACATCATTTTTCATTCTACGGAGTCACCTAGTGCAG | 8060 fluorescence intensity (a.u.) |
| TTAGGTAGCAAACTGCATCATGTCGATCATTCCATTGCGCCGGAGTCACCTAGTGCAG | 8610 fluorescence intensity (a.u.) |
| ATCTCCCTCGTTTTCTGCGCGCACACTTTTCAAACTGCTACGGAGTCACCTAGTGCAG | 8720 fluorescence intensity (a.u.) |
| AAGTGAGTTTAGGGGTACACATTTCTGGTTTTGTGGTTAACGGAGTCACCTAGTGCAG | 8410 fluorescence intensity (a.u.) |
| ACTCTCTCCGTCCTTAAATATTTGACGCCGTTGACTTTTTCGGAGTCACCTAGTGCAG | 30600 fluorescence intensity (a.u.) |
| ACGTCGATCTCCGCCTCCTCAAAACCTTCTCGCCACGACGCGGAGTCACCTAGTGCAG | 9620 fluorescence intensity (a.u.) |
| CACACACACACTCTCTCTCCTCTCTTTCTCGCCCGTTTCCCGGAGTCACCTAGTGCAG | 8780 fluorescence intensity (a.u.) |
| AACTATTTTTACAAATGAACCGCTGCCAAAACTTATTTCACGGAGTCACCTAGTGCAG | 8300 fluorescence intensity (a.u.) |
| AGTACTCCGTTTTATTATATTATAAATCGTTTTATTTTTTCGGAGTCACCTAGTGCAG | 11900 fluorescence intensity (a.u.) |
| AGCTACTTCTTTCGTTTTATATTATAGGACGCTTTAACTTCGGAGTCACCTAGTGCAG | 11400 fluorescence intensity (a.u.) |
| GCGCTTTCGGTTCCTTTCCCCTGTTTGCGCTGTACTTTTCCGGAGTCACCTAGTGCAG | 12400 fluorescence intensity (a.u.) |
| TTTCAGTCTGGTCTTTTCTCTGTACCTATTTCTATTCATTCGGAGTCACCTAGTGCAG | 14900 fluorescence intensity (a.u.) |
| GTGCAAAATCTCACTCAACTTACTGCATTGCTTCTCCAGACGGAGTCACCTAGTGCAG | 9350 fluorescence intensity (a.u.) |
| CTTTCCAATTTGTTTAATTACCTGCTAACTTTGCTGCATCCGGAGTCACCTAGTGCAG | 10500 fluorescence intensity (a.u.) |
| CCACATCACGTGTGTGGGTTGCGTGGGTTGGGCTGGCAAACGGAGTCACCTAGTGCAG | 10800 fluorescence intensity (a.u.) |
| TAACTAATTTTGACCGGGTAGCATATAGTTTTGGGCTTTTCGGAGTCACCTAGTGCAG | 8220 fluorescence intensity (a.u.) |

A different layout for part of the listing above:
Sequence,binding signal
TAAATTCCTATATTGTTTCTTTCCTATTTGTATAGTCGCACGGAGTCACCTAGTGCAG,8500 fluorescence intensity (a.u.)
TTTCAGTCTGGTCTTTTCTCTGTACCTATTTCTATTCATTCGGAGTCACCTAGTGCAG,14900 fluorescence intensity (a.u.)
GTGCAAAATCTCACTCAACTTACTGCATTGCTTCTCCAGACGGAGTCACCTAGTGCAG,9350 fluorescence intensity (a.u.)

(list continues)

| Sequence | binding signal |
| --- | --- |
| ACAAGATTGTTTTTTATCACTTTTTTTCTCCTCATTATTCCGGAGTCACCTAGTGCAG | 8810 fluorescence intensity (a.u.) |
| ATCCGTCCATCCTCCATCCGATGGCCGATAAGCCGTCCACCGGAGTCACCTAGTGCAG | 8060 fluorescence intensity (a.u.) |
| CGCCGTCTCCACCGCACCCTCGCCCTCACCGCCGGCTCAACGGAGTCACCTAGTGCAG | 8960 fluorescence intensity (a.u.) |
| GTTTGCGTGATTCTTTTCTGGTTGCCAATTTGGATATCTTCGGAGTCACCTAGTGCAG | 8460 fluorescence intensity (a.u.) |
| TTCTAGCCCATTCTCCGCTGTTGTGCTTTCTTCGTTTGATCGGAGTCACCTAGTGCAG | 11000 fluorescence intensity (a.u.) |
| CCATCTTCACCGTCTTGCCATATGGGACTCCCCATGACCACGGAGTCACCTAGTGCAG | 10500 fluorescence intensity (a.u.) |
| ACAATTCACAAACGAACCTCTGCTGTTAGCCGCCTCTTTCCGGAGTCACCTAGTGCAG | 8190 fluorescence intensity (a.u.) |
| ACTCTTTTGAACCTAGGGTCATTCTCGTATTTTTAAAGAACGGAGTCACCTAGTGCAG | 14000 fluorescence intensity (a.u.) |
| TTATTTTTCGTTCCTTCTTTTTTTCTCTCTCACTTTTCTCCGGAGTCACCTAGTGCAG | 11300 fluorescence intensity (a.u.) |
| GCCGCCGCCGTTGCCCGCGCAGCGCATTCTCCATTCCCTTCGGAGTCACCTAGTGCAG | 8360 fluorescence intensity (a.u.) |
| TTCTGGATCCGCCACTCTCGTGCGTATTTGGGCTAAAAAACGGAGTCACCTAGTGCAG | 8780 fluorescence intensity (a.u.) |
| ACCCGGTCCAAATCCACCTACTACTGTTTTTCTTTTGTCCCGGAGTCACCTAGTGCAG | 10800 fluorescence intensity (a.u.) |
| TCCACCTCACCCAACCTTGCCACGTCACTCCATCACAACCCGGAGTCACCTAGTGCAG | 11200 fluorescence intensity (a.u.) |
| GCTGTCTCTATCCGGGCTGATAAGAACCGAGGGAGTGTGACGGAGTCACCTAGTGCAG | 8200 fluorescence intensity (a.u.) |
| AATTTTTATTGTGATGTCTTATTGACATGGTACCATATACCGGAGTCACCTAGTGCAG | 8250 fluorescence intensity (a.u.) |
| GGCAGGCAGGCAGTCGTTCATCCACATCCACCGCCGCCGTCGGAGTCACCTAGTGCAG | 11500 fluorescence intensity (a.u.) |
| CTCCTCTTCCTGCTGCTCTCTCGCTCTCGTTGGATTCGGTCGGAGTCACCTAGTGCAG | 9620 fluorescence intensity (a.u.) |
| ACCACTATCACACAGTGGGATCGCTTACGTCATATACTTTCGGAGTCACCTAGTGCAG | 11100 fluorescence intensity (a.u.) |
| CATTTTGCTGTCATTATTTCTTCGGGATTGAAGTTCCATCCGGAGTCACCTAGTGCAG | 8970 fluorescence intensity (a.u.) |
| CATCCATTTCCCTTTCCCAGTCCCATCTCTCATATCCCATCGGAGTCACCTAGTGCAG | 8030 fluorescence intensity (a.u.) |
| CGCCACGGTCGCGCCTTCTTTGTCTCTCCCTTGTTTTTTTCGGAGTCACCTAGTGCAG | 9920 fluorescence intensity (a.u.) |
